Measured values from patent US8003595B2, “Amino acid sequences facilitating penetration of a substance of interest into cells and/or cell nuclei” (Cellectis, priority 2000, dated 2011).

Legend:
Test in all cases: Growth inhibition by peptide-doxorubicin conjugates (MTT, 48 hours)
Type in all cases: cell-based
Conditions in all cases: Homo sapiens, read-out: molar concentration giving 50% inhibition of the growth of the cells
HeLa = test system: HeLa
Experimental: (§1) To evaluate the biological activity of peptide-doxorubicin conjugates, the inhibition of the growth of tumor cells in culture is measured.
(§2) The cells are sown the night before in 96-well plates at the rate of 10^3 cells per well.

K562 = test system: K562
Experimental: as §1, §2

MCF7 = test system: MCF7
Experimental: as §1, §2

IC50 (HeLa): 0.2 µM
IC50 (K562): 0.04 µM
IC50 (MCF7): 0.2 µM
SMILES: COc1cccc2c1C(=O)c1c(O)c3c(c(O)c1C2=O)C[C@@](O)(C(=O)CO)C[C@@H]3O[C@H]1C[C@H](N)[C@H](O)[C@H](C)O1 [Doxorubicin (natural), Doxorubicin]
